Measured values published in PubChem BioAssay AID540276 (National Center for Advancing Translational Sciences (NCATS), 2011).
About 5,400 (1.8%) of roughly 300,000 compounds were called active. The shares of active, inactive and inconclusive entries below differ from those in the screen. Calls come from the whole dose curve; tested in HEK293 cells. Where the call is inconclusive, the potency comes from a doubtful curve fit.

Test: qHTS for inhibitors of binding or entry into cells for Marburg Virus
Conditions: Marburg virus pseudotyped entry inhibition, cell reporter; series mostly up to 37.8 µM
Potency is the fitted concentration of half-maximal effect.

SMILES | Potency
COc1ccc(-n2c3c(cc(C(=O)NC4CCSC4=O)c2=O)C(=O)CC(C)(C)C3)cc1 (stereo not given) | inactive
CN(C)c1ccc(CNCCC(Cc2ccccc2)c2ccco2)cc1 (stereo not given) | active: 14.6 µM
Cc1nc2ccc(NC(=O)COc3ccccc3F)cc2s1 | inconclusive: 2.82 µM [inhibitor, partial curve, poor fit]
CCOC(=O)c1c(C)[nH]c(-c2csc(C)n2)c1C | inconclusive: 31.6 µM [activator, single point]
COC(=O)CNC(=O)COC(=O)/C=C/c1cccs1 | inactive
Cc1ccc(NC(=O)CCCn2nc(C)c3c(C)n(-c4ccccc4)nc3c2=O)c(Cl)c1 | inconclusive: 12.6 µM [activator, partial curve, poor fit]
CC(C)Cn1cnc2sc3c(c2c1=N)CCCC3 | inconclusive: 35.5 µM [inhibitor, single point]
CN1CCS/C1=C/C=C1/SC(=S)N(Cc2ccccc2)C1=O | inconclusive: 6.51 µM [activator, single point]
CCCN1C(C(=O)c2ccccc2)=C(OC(=O)COc2ccc(C)cc2)c2ccccc2S1(=O)=O | inconclusive: 3.16 µM [inhibitor, single point]
c1ccc2c(c1)OCC(c1nnc3n1-c1ccccc1SC3)O2 (stereo not given) | inconclusive: 1.26 µM [inhibitor, single point]
CCOC(=O)c1ccc(Nc2cc(C)nc(-c3ccccc3O)n2)cc1 | inconclusive: 29.1 µM [inhibitor, single point]
Clc1nc2sccn2c1/C=N/n1cnc2ccccc21 | inactive
Cc1ccc(S(=O)(=O)N(C)c2ccc(OCC(=O)OCc3c(C)noc3C)cc2)cc1 | inactive
CCOc1cccc(C2/C(=C(/O)c3ccc4c(c3)CC(C)O4)C(=O)C(=O)N2CCN2CCOCC2)c1 (stereo not given) | inconclusive: 8.91 µM [activator, partial curve]
CNC(=O)c1ccc(Nc2nc(-c3ccccc3)nc3ccccc23)cc1 | inconclusive: 7.94 µM [inhibitor, partial curve, poor fit]
CCCC1Oc2ccccc2C(=O)N(CC(=O)c2ccc3c(c2)OCCO3)C1=O (stereo not given) | inconclusive: 5.62 µM [activator, single point]
Cc1nnc(SC(C)C(=O)N2CCc3ccccc32)s1 (stereo not given) | inconclusive: 8.91 µM [activator, partial curve]
O=C(O)CCc1nc2cc3ccccc3cc2[nH]1 | inactive
O=C(NCC(c1cccnc1)N1CCOCC1)c1ccco1 (stereo not given) | inconclusive: 1.3 µM [inhibitor, partial curve, poor fit]
CN(N=Nc1cccc([N+](=O)[O-])c1)c1ccccc1 | inconclusive: 4.47 µM [activator, single point]
CC1C(=O)N2CCCc3cc(NC(=O)C(=O)NCc4ccc5c(c4)OCO5)cc1c32 (stereo not given) | inactive
COCCNC(=O)c1cn(C)c2ccccc2c1=O | inconclusive: 3.16 µM [inhibitor, single point]

SMILES | Potency
COc1cc(SC)ccc1C(=O)Nc1ccc2ncccc2c1 | inconclusive: 7.94 µM [inhibitor, single point]
COc1cc(NC(=O)COC(=O)/C=C/c2ccccc2Cl)cc(OC)c1 | inactive
COc1ccc(/C(N)=N/OC(=O)Cc2ccc(OC)c(OC)c2)cc1 | inconclusive: 32.6 µM [inhibitor, single point]
CCN(c1ccccc1)S(=O)(=O)c1ccc(OC)c(NC(=O)Cn2cnc3c2c(=O)n(C)c(=O)n3C)c1 | inactive
COc1ccc(C(=Cc2cc(OC)c(OC)cc2[N+](=O)[O-])C(=O)O)cc1 | inactive
CN(Cc1cnccn1)C(=O)CC1C(=O)NCCN1Cc1ccc(F)cc1Cl (stereo not given) | inconclusive: 22.4 µM [inhibitor, single point]
O=C(NC1CCCCC1)c1noc2c1CCCCC2 | inconclusive: 25.9 µM [inhibitor, single point]
Cc1cc(NC(=O)COC(=O)c2ccc(NS(=O)(=O)c3ccc(C)c(C)c3)cc2)no1 | inconclusive: 0.398 µM [inhibitor, full curve, poor fit]
Cc1ccc(NS(=O)(=O)c2csc(C(N)=O)c2)cc1C | inconclusive: 12.6 µM [inhibitor, single point]
COC(=O)c1ccc(CN2C(=O)[C@@]3(CC(C)=CC[C@@H](COc4ccccc4)O3)c3c(Br)cccc32)cc1 | inactive
Fc1ccc(-c2nc(-c3cccs3)[nH]c2-c2ccc(F)cc2)cc1 | inconclusive: 0.447 µM [activator, partial curve, poor fit]
Cc1ccc(NC(=O)OCCNC(=O)OC(C)C)cc1 | inconclusive: 3.16 µM [activator, partial curve, poor fit]
CCCc1nnc(NC(=O)CCCN2C(=O)c3ccccc3C2=O)s1 | inconclusive: 1 µM [activator, full curve, poor fit]
Cc1ccc(/C(N)=N/OC(=O)c2ccc(C)cc2Cl)cc1 | inconclusive: 7.94 µM [inhibitor, partial curve, poor fit]
CCNc1nc(NC(C)C)nc(OCCNS(=O)(=O)c2cc(C)ccc2C)n1 | inactive
O=C(c1ccccc1)c1ccc(N2CCNCC2)cc1 | inactive
O=C(NN=Cc1ccc(N(CCCl)CCCl)cc1)c1cccc([N+](=O)[O-])c1 | inconclusive: 1.78 µM [inhibitor, full curve, poor fit]
CCOc1ccccc1-c1cc(C(=O)N/N=C/c2cccnc2)c2ccccc2n1 | active: 5.62 µM
COC(=O)c1sccc1NC(=S)Nc1cc(OC)ccc1OC | inconclusive: 22.4 µM [inhibitor, single point]
COCC(C)n1c(C)cc(C(=O)COC(=O)c2cc(=O)[nH]c3ccccc23)c1C (stereo not given) | inconclusive: 11.2 µM [inhibitor, partial curve, poor fit]
COc1ccc(CN2C(=O)CCCc3ccccc32)cc1 | inconclusive: 25.1 µM [inhibitor, single point]
CN(CC(=O)Nc1ccccc1Cl)C(=O)c1cccc(S(=O)(=O)N2CCN(Cc3ccccc3)CC2)c1 | inconclusive: 3.55 µM [inhibitor, partial curve, poor fit]

Looked up above:
Entry of `Cc1ccc(/C(N)=N/OC(=O)c2ccc(C)cc2Cl)cc1` under Potency: inconclusive: 7.94 µM [inhibitor, partial curve, poor fit]
Entry of `COCC(C)n1c(C)cc(C(=O)COC(=O)c2cc(=O)[nH]c3ccccc23)c1C` (stereo not given) under Potency: inconclusive: 11.2 µM [inhibitor, partial curve, poor fit]
Entry of `CCNc1nc(NC(C)C)nc(OCCNS(=O)(=O)c2cc(C)ccc2C)n1` under Potency: inactive
Entry of `COc1ccc(/C(N)=N/OC(=O)Cc2ccc(OC)c(OC)c2)cc1` under Potency: inconclusive: 32.6 µM [inhibitor, single point]
Entry of `CCOc1ccccc1-c1cc(C(=O)N/N=C/c2cccnc2)c2ccccc2n1` under Potency: active: 5.62 µM
Entry of `O=C(NC1CCCCC1)c1noc2c1CCCCC2` under Potency: inconclusive: 25.9 µM [inhibitor, single point]

Continuation:

SMILES | Potency
Cc1cc(C)nc(Nc2n[nH]c(-c3cccc4ccccc34)n2)n1 | inactive
COc1cccc(NC(=O)/C=C/c2ccc([N+](=O)[O-])cc2)c1 | inconclusive: 14.6 µM [inhibitor, single point]
N/C(CN1CCCC1=O)=N\OC(=O)c1ccccc1Cl | inconclusive: 4.61 µM [activator, single point]
COc1ccccc1N(CC(=O)N(c1ccccc1)C(C)C)S(=O)(=O)c1cccs1 | inconclusive: 10 µM [inhibitor, partial curve, poor fit]
CCOc1ccc(S(=O)(=O)N2CCCC(C(=O)NCc3ccncc3)C2)cc1 (stereo not given) | inconclusive: 11.2 µM [inhibitor, partial curve]
COc1cccc(N2CCN(CC(=O)c3c(C)[nH]c4ccccc34)CC2)c1 | inconclusive: 29.1 µM [inhibitor, partial curve, poor fit]
O=C(COc1ccccc1)Nc1cccc(-c2nc3cc4ccccc4cc3[nH]2)c1 | inconclusive: 29.1 µM [inhibitor, single point]
COc1ccccc1Nc1cc(C(=O)NCCCN(C)C2CCCCC2)c2ccccc2n1 | inconclusive: 11.2 µM [inhibitor, partial curve, poor fit]
COc1ccc(N(C(C)C(=O)N2CCC(Cc3ccccc3)CC2)S(C)(=O)=O)cc1 (stereo not given) | inconclusive: 5.62 µM [inhibitor, partial curve, poor fit]
O=C(Nc1ccc(Br)c(C(F)(F)F)c1)c1ccc(C(F)(F)F)cc1 | inconclusive: 8.91 µM [inhibitor, partial curve, poor fit]
CCc1ccccc1NC(=O)CN(c1cc(C(F)(F)F)ccc1Cl)S(=O)(=O)c1ccccc1 | inconclusive: 2 µM [inhibitor, single point]
CCN(C1CCCCC1)S(=O)(=O)c1ccc(S(=O)(=O)N2CCN(CCC#N)CC2)cc1 | inactive
O=S(=O)(c1cnccc1N1CCN(/N=C/c2ccc(Br)cc2)CC1)N1CCCCC1 | inconclusive: 3.98 µM [activator, full curve, poor fit]
CN(C)c1ccc(-c2noc(C3CCN(S(=O)(=O)c4cccc(Cl)c4)CC3)n2)cc1 | inconclusive: 14.6 µM [inhibitor, single point]
CCC(C)NC(=O)/C(=C/c1ccco1)c1ccccc1 (stereo not given) | inactive
CS(=O)(=O)c1ccc(NC(=O)c2cc3c(cc2Cl)N2CCCCCC2=NS3(=O)=O)cc1 | inconclusive: 0.112 µM [inhibitor, partial curve, poor fit]
Cc1ccc(N(CC(=O)NC(C)C)C(=O)CCC(=O)Nc2ccccn2)cc1 | inactive
O=C1CN(C(=O)c2ccc(S(=O)(=O)N3CCCC3)cc2)C(c2ccc(F)cc2)c2cc(Br)ccc2N1 (stereo not given) | inconclusive: 35.5 µM [inhibitor, single point]
CN1CCN(c2nc3cc(C(F)(F)F)ccc3n3cccc23)CC1 | active: 8.91 µM
CCC1S/C(=N/S(=O)(=O)c2ccc(N)cc2)NC1=O (stereo not given) | inconclusive: 3.55 µM [inhibitor, partial curve, poor fit]
CC1CCN(Cc2c(O)ccc3c(=O)c(-c4nc5ccccc5s4)c(N)oc23)CC1 | inconclusive: 1.16 µM [activator, single point]
